Results from PMC7042713.
No constants are given. Whether binding was seen depends on the method and setting. Some binding calls cover weakened binding; strength is not graded here.

B1: AtSOK4 DIX domain (Arabidopsis thaliana SOSEKI4), wild type (domain or fragment, UniProt Q8GY65 15-109)
chain: SRERIVPVVYYLSRNGRLDHPHFIEVPLSSHNGLYLKDVINRLNDLRGNGMACLYSWSSKRTYKNGFVWYDLSDEDFIFPVHGQEYVLKGSQILD
B2: AtSOK4 DIX domain D85A (crystallised) (domain or fragment, UniProt Q8GY65 15-109)
chain: SRERIVPVVYYLSRNGRLDHPHFIEVPLSSHNGLYLKDVINRLNDLRGNGMACLYSWSSKRTYKNGFVWYALSDEDFIFPVHGQEYVLKGSQILD
modifications: selenomethionine labelling (to determine phasing)

Experiments:
[1] = target: AtSOK4 DIX domain (Arabidopsis thaliana SOSEKI4), wild type (Arabidopsis thaliana) (UniProt Q8GY65); assay: SEC-MALS; purified recombinant DIX domains at 2 mg/mL unless stated otherwise; PBS with 1 mM DTT; Superdex200 10/300 GL; 100 ul sample, 0.5 mL/min; both purified
[2] = target: AtSOK4 DIX domain D85A (crystallised) (Arabidopsis thaliana) (UniProt Q8GY65); assay: crystal structure; AtSOK4 DIX D85A, tag removed, 9 mg/mL; crystals in 0.69 M ammonium sulfate, 200 mM NaCl, 100 mM HEPES pH 7.0; 18°C; selenomethionine phasing; both purified

| Binder | binding [1] | binding [2] |
| --- | --- | --- |
| B1 | binds |  |
| B2 |  | binds |
